The other results are listed elsewhere or left out.

Protein sequences, listed by entry. Tags and fused reporters are not part of them. Lines headed by an entry give the natural chain unless they say otherwise; changes in a name come on top.
UniProt O60725, whole entry, looked up: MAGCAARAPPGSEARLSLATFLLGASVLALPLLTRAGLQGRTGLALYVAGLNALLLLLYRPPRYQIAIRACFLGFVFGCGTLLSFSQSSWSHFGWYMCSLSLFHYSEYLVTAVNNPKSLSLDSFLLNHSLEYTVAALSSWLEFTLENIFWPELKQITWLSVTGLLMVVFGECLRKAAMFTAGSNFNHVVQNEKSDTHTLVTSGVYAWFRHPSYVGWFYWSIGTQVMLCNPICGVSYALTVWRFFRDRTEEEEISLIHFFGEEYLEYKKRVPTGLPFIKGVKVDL
UniProt P30939: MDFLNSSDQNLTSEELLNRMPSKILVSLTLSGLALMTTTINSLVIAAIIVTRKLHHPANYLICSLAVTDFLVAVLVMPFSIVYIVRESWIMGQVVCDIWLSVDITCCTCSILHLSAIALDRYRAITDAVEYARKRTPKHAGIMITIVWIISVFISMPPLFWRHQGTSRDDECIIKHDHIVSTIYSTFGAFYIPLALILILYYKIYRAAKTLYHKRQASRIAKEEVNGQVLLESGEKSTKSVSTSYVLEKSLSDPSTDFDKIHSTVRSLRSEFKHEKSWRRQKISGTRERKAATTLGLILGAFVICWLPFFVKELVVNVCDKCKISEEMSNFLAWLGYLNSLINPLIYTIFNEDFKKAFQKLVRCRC
UniProt P50213: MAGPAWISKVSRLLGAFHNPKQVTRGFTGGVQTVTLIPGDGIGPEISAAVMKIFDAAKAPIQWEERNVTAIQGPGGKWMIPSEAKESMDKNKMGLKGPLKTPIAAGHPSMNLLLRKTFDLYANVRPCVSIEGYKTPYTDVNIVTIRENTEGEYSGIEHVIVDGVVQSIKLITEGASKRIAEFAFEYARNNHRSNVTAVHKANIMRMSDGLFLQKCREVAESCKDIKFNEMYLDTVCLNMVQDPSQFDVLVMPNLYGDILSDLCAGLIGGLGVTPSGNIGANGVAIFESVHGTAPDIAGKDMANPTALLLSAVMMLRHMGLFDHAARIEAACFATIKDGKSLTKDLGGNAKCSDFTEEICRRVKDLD
UniProt Q8N6C5: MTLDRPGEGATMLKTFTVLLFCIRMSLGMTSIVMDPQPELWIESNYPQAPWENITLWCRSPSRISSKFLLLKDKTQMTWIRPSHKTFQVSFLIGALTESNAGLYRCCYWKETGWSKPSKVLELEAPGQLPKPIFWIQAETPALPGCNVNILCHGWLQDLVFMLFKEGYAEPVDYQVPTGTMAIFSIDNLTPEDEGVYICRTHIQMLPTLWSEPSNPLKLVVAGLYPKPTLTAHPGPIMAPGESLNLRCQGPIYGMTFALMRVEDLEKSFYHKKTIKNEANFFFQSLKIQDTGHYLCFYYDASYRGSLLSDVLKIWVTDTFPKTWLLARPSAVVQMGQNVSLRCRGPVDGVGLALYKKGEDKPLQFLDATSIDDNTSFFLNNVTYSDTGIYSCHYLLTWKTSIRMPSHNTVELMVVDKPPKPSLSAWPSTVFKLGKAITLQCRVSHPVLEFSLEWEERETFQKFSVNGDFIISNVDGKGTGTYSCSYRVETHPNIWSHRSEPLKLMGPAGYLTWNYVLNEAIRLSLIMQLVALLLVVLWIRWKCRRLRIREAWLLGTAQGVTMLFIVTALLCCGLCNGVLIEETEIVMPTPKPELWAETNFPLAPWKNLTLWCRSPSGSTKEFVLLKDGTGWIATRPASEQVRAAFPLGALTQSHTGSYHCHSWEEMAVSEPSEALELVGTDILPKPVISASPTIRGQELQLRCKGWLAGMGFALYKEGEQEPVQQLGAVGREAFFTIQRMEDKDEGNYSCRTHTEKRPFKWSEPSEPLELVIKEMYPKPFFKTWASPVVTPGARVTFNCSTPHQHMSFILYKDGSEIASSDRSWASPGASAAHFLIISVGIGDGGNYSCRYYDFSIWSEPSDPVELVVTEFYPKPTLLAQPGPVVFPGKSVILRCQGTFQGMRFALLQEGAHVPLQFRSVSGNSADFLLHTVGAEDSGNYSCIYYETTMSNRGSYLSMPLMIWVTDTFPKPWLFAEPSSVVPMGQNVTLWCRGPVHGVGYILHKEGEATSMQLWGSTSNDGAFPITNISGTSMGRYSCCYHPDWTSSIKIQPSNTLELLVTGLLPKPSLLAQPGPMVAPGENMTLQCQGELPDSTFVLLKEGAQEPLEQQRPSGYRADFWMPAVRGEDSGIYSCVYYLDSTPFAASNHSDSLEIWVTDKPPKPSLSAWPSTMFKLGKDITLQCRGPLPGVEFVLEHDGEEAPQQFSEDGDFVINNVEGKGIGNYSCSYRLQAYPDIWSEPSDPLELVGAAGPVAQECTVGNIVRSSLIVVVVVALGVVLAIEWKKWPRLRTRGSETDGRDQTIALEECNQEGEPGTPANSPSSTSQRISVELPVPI
UniProt Q8WYH8, whole entry, looked up: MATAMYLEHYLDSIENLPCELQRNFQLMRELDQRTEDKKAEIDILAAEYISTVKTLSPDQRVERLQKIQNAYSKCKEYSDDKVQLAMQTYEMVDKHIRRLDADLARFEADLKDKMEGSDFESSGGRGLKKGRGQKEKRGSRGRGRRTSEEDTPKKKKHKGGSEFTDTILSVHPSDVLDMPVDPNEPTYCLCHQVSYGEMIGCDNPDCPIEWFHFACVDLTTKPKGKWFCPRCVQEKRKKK
UniProt O14879: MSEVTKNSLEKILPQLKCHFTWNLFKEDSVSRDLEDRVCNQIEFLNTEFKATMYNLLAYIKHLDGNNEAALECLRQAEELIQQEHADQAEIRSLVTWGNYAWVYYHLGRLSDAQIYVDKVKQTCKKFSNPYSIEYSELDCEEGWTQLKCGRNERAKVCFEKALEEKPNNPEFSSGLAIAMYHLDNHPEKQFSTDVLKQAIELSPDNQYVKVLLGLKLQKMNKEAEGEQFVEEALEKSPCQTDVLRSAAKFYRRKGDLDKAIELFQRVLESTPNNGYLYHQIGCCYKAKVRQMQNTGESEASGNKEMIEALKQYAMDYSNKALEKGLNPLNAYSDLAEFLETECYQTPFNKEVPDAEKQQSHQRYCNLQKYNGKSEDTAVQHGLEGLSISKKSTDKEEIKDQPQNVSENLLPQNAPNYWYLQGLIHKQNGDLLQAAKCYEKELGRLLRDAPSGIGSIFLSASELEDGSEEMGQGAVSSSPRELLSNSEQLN
UniProt Q9NWB7: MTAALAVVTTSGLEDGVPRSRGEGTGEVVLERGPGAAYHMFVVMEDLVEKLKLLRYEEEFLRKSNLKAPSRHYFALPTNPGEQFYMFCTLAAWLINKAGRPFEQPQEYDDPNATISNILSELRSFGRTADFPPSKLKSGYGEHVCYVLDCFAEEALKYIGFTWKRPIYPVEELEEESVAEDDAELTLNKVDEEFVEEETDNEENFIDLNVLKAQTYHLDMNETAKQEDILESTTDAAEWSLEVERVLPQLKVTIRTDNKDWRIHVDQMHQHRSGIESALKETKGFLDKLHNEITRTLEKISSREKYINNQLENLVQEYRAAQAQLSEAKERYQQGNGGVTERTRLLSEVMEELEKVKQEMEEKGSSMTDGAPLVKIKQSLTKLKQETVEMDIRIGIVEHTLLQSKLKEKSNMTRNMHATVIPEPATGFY
UniProt A2RU49: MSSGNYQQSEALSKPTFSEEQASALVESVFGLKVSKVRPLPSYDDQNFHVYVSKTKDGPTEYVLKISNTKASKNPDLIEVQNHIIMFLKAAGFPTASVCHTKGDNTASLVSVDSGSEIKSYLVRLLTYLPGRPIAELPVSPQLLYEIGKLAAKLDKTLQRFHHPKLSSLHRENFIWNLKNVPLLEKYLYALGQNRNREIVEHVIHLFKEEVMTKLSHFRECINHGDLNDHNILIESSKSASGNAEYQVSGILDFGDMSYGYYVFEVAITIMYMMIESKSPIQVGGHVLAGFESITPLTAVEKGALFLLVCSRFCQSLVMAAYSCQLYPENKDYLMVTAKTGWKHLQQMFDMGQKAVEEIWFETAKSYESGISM
UniProt P22304: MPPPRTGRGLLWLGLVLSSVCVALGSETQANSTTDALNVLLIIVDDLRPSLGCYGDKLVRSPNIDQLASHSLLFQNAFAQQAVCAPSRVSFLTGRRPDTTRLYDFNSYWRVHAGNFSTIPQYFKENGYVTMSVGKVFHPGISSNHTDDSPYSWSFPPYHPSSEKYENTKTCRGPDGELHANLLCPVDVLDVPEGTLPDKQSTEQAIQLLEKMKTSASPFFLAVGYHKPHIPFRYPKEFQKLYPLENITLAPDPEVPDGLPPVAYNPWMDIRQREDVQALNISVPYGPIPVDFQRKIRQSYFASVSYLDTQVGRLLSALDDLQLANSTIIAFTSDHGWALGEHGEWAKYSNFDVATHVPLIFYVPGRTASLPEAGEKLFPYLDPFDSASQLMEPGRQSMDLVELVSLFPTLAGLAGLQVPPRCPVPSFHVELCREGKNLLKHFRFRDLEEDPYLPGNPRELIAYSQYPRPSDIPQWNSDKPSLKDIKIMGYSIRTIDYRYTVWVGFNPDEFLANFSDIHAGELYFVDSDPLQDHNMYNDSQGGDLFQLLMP
UniProt Q96EW2: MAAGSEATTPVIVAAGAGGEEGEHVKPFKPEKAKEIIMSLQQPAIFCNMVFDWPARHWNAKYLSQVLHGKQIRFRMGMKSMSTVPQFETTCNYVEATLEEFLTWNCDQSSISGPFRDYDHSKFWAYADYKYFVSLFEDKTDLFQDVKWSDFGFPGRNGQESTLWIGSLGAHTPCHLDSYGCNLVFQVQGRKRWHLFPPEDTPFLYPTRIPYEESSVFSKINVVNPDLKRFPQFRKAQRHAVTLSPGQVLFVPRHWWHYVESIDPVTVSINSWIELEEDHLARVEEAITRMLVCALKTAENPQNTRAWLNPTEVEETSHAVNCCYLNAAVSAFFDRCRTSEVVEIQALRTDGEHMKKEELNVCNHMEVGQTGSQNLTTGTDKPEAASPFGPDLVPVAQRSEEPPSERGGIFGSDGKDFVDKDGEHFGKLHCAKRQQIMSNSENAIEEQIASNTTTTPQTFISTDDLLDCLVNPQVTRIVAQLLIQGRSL
UniProt Q9H7X7: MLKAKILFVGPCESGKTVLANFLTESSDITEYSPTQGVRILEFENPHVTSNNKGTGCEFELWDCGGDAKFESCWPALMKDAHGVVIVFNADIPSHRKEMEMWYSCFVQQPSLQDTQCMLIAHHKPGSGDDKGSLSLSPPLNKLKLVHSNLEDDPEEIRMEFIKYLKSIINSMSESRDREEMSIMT
UniProt Q8NBZ0, whole entry, looked up: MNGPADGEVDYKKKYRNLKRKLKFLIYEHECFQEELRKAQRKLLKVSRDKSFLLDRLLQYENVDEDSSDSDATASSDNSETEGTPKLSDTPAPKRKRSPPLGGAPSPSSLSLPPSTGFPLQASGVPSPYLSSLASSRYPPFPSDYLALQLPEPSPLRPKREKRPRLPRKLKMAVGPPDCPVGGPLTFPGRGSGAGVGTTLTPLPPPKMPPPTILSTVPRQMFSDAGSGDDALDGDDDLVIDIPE
UniProt Q96LU5: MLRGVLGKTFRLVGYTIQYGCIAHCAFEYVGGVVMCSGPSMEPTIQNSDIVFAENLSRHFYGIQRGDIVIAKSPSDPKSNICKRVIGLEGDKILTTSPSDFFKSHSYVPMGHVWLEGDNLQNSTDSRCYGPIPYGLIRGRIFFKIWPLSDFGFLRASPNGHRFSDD
UniProt Q6UWB1, whole entry, looked up: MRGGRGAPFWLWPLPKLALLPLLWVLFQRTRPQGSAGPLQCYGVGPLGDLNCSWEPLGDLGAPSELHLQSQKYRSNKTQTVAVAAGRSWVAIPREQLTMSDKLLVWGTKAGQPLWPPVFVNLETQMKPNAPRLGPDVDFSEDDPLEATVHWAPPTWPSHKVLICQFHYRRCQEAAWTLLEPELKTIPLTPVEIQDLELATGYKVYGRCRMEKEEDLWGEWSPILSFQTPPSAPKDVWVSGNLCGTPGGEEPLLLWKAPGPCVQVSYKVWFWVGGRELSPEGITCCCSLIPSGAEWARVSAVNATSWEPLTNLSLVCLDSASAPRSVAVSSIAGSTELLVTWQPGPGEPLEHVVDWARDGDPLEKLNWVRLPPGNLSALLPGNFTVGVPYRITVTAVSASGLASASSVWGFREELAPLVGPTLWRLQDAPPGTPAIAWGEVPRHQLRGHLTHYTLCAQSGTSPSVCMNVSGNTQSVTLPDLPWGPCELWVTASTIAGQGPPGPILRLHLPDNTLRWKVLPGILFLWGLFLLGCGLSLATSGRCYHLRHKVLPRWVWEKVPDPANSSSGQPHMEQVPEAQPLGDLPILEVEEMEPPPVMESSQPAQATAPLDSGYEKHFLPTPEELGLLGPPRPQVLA
UniProt Q9UK53: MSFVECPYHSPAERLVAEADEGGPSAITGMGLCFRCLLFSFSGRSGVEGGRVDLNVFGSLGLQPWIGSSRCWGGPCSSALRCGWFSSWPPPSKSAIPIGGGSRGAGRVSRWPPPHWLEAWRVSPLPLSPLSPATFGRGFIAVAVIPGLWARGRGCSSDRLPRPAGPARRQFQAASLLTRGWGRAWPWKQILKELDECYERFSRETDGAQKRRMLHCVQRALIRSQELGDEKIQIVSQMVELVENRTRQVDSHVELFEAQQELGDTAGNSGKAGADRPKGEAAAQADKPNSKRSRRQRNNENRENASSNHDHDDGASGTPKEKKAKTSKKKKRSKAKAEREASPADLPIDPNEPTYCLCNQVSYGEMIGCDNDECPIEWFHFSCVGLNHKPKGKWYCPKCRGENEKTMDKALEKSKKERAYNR

27 targets from the supplement of paper PMC10849652 can be followed below.

Compound in the first assay: C1=CC=C2C(=C1)C3=NNC4=CC=CC(=C43)C2=O
In words: log2 fold change, soluble protein after heating vs DMSO (PISA); higher = thermal stabilisation; K562 lysate, 10 uM; active = over 0.2 and 3.5 SD of the protein, either way, in both replicates (recomputed). The essentials: (§1)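 To prepare the extract, K562 pellets were dounce-homogenised in PBS pH 7.4 with 1 mM MgCl2, giving crude material at 1 mg/mL protein. This was treated with 10 μM compound for 30 min, then heated in aliquots for 3 min over 48°C-58°C before pooling and addition of NP-40 to 0.5% at 4°C. Centrifugation at 21,000xg for 90 min left soluble protein in the supernatant, which TMTpro 16plex LC-MS/MS quantified with equalised channel sums. Results are log-two fold changes in thermal stability compared with solvent controls, from duplicates.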
For HYDIN (UniProt Q4G0P3), the log2 fold change is inactive: 0.036.

IMPDH2 (UniProt H0Y4R1): the log2 fold change is inactive: -0.029.

As for ICMT (UniProt O60725), the log2 fold change is inactive: -0.011.

HTR1F (UniProt P30939): the log2 fold change was inactive: -0.033.

For the target IDH3A isoform 2 (UniProt P50213), the log2 fold change was inactive: 0.082.

As for IGSF1 isoform 4 (UniProt Q8N6C5), the log2 fold change was inactive: -0.171.

Turning to IFT122 isoform 5 (UniProt Q9HBG6), the log2 fold change was inactive: -0.144.

Consider HTD2 (UniProt P86397), for which the log2 fold change is inactive: 0.084.

Compound in another assay: C1CCN(C1)C(=O)NC2=CC=CC(=C2)NC3=NC=C(C(=N3)NCCC4=CN=CN4)Br
The assay is described as above. The essentials:
as §1
For IGHMBP2 (UniProt P38935), the log2 fold change was inactive: 0.097.

Consider HYDIN (UniProt Q4G0P3), for which the log2 fold change is inactive: -0.054.

Take ING5 (UniProt Q8WYH8): the log2 fold change was inactive: -0.041.

In the case of HSPA8 (UniProt E9PN89), the log2 fold change was inactive: -0.045.

For the target HVCN1 (UniProt Q96D96), the log2 fold change is inactive: -0.13.

As to IFIT3 (UniProt O14879), the log2 fold change was inactive: 0.397.

Turning to IMPDH2 (UniProt H0Y4R1), the log2 fold change is inactive: 0.099.

With IFT57 (UniProt Q9NWB7), the log2 fold change is inactive: 0.093.

ICMT (UniProt O60725): the log2 fold change is inactive: -0.197.

Consider HYKK (UniProt A2RU49), for which the log2 fold change was inactive: -0.089.

Regarding HYOU1, A0A494C039, the log2 fold change is inactive: -0.054.

For the target IDS (UniProt P22304), the log2 fold change was inactive: 0.152.

As for IDH3A isoform 2 (UniProt P50213), the log2 fold change is inactive: -0.029.

HSPBAP1 (UniProt Q96EW2): the log2 fold change is inactive: 0.002.

For IGSF1 isoform 4 (UniProt Q8N6C5), the log2 fold change is inactive: 0.096.

For IGKC (UniProt P01834), the log2 fold change is inactive: -0.095.

Turning to IFT22 (UniProt Q9H7X7), the log2 fold change was inactive: -0.063.

For INO80E (UniProt Q8NBZ0), the log2 fold change is inactive: 0.02.

For the target IMMP1L (UniProt Q96LU5), the log2 fold change is inactive: 0.044.

With HTD2 (UniProt P86397), the log2 fold change is inactive: 0.075.

IL27RA (UniProt Q6UWB1): the log2 fold change is inactive: -0.023.

Compound in another assay: C1CN(CCC1(CC2=CC=C(C=C2)Cl)N)C3=NC=NC4=C3C=CN4
The assay is described as above. The gist of the method: as §1
Consider IGHMBP2 (UniProt P38935), for which the log2 fold change is inactive: -0.023.

As for HYDIN (UniProt Q4G0P3), the log2 fold change was inactive: 0.022.

As for ING5 (UniProt Q8WYH8), the log2 fold change is inactive: -0.068.

Turning to HSPA8 (UniProt E9PN89), the log2 fold change was inactive: -0.043.

As for HVCN1 (UniProt Q96D96), the log2 fold change was inactive: -0.098.

Consider IFIT3 (UniProt O14879), for which the log2 fold change is inactive: -0.099.

As for IMPDH2 (UniProt H0Y4R1), the log2 fold change is inactive: 0.076.

Regarding IFT57 (UniProt Q9NWB7), the log2 fold change was inactive: 0.069.

For ICMT (UniProt O60725), the log2 fold change was inactive: -0.011.

HYKK (UniProt A2RU49): the log2 fold change was inactive: 0.223.

Turning to HYOU1, A0A494C039, the log2 fold change is inactive: -0.041.

With IDS (UniProt P22304), the log2 fold change was inactive: -0.249.

Take IDH3A isoform 2 (UniProt P50213): the log2 fold change was inactive: 0.036.

Take HSPBAP1 (UniProt Q96EW2): the log2 fold change is inactive: 0.031.

As for IGSF1 isoform 4 (UniProt Q8N6C5), the log2 fold change is inactive: 0.178.

For IGKC (UniProt P01834), the log2 fold change is inactive: 0.188.

For the target IFT22 (UniProt Q9H7X7), the log2 fold change was inactive: -0.1.

For the target INO80E (UniProt Q8NBZ0), the log2 fold change was inactive: 0.088.

Turning to IMMP1L (UniProt Q96LU5), the log2 fold change is inactive: -0.06.

In the case of HTD2 (UniProt P86397), the log2 fold change was inactive: -0.042.

As to IL27RA (UniProt Q6UWB1), the log2 fold change is inactive: -0.064.

Compound in the next assay: C1COCCN1CCN2C3=CC=CC=C3N=C2NC(=O)C4=CC(=CC=C4)[N+](=O)[O-] [IRAK-1-4 Inhibitor I]
The description is as above. The gist of the method:
as §1
Take ING1 (UniProt Q9UK53): the log2 fold change is inactive: -0.031.

On to HYDIN (UniProt Q4G0P3), for which the log2 fold change was inactive: 0.712.

Regarding ING5 (UniProt Q8WYH8), the log2 fold change was inactive: 0.125.

Regarding HSPA8 (UniProt E9PN89), the log2 fold change was inactive: -0.055.

Take IGFBP4 (UniProt P22692): the log2 fold change was inactive: 0.016.

On to IGHV3-72, A0A4W8ZXM2, for which the log2 fold change was inactive: -0.354.

On to IFIT3 (UniProt O14879), for which the log2 fold change was inactive: 0.024.

Turning to IMPDH2 (UniProt H0Y4R1), the log2 fold change was inactive: 0.037.

As to IFT57 (UniProt Q9NWB7), the log2 fold change is inactive: 0.071.

Consider ICMT (UniProt O60725), for which the log2 fold change was inactive: 0.034.

As for HYKK (UniProt A2RU49), the log2 fold change is inactive: -0.051.

Consider IGKV3D-7, A0A0C4DH55, for which the log2 fold change was inactive: -0.228.

In the case of HSPBAP1 (UniProt Q96EW2), the log2 fold change is inactive: -0.002.

Consider IGKC (UniProt P01834), for which the log2 fold change was inactive: -0.174.

In the case of IFT22 (UniProt Q9H7X7), the log2 fold change was inactive: 0.118.

For the target INO80E (UniProt Q8NBZ0), the log2 fold change is inactive: -0.111.

For the target IMMP1L (UniProt Q96LU5), the log2 fold change was inactive: -0.008.

For the target IFT122 isoform 5 (UniProt Q9HBG6), the log2 fold change was inactive: 0.107.

Regarding HTD2 (UniProt P86397), the log2 fold change was inactive: -0.041.

Regarding IL27RA (UniProt Q6UWB1), the log2 fold change is inactive: -0.042.
